Reference: paper doi:10.1101/2022.03.28.486115

Protein sequences, listed by entry. Tags and fused reporters are not part of them.
UniProt P35372, whole entry: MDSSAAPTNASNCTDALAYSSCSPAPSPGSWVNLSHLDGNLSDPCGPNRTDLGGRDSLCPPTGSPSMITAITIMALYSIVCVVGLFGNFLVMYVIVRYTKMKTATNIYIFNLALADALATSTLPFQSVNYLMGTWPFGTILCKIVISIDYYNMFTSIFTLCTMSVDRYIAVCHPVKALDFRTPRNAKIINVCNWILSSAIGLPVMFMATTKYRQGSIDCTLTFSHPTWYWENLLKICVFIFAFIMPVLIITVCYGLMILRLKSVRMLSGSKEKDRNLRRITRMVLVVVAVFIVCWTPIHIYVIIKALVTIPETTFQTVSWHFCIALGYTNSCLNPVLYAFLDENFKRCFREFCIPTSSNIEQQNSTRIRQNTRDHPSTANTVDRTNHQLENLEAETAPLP

Molecular target: APEX2-tagged μOR (human) (human) (UniProt P35372)
Experiment: proximity labelling

How did the binding turn out when ARRB2 (from UniProt P32121 1-409) was run?
Its binding is “binds”.

Results are given in words; binding and its absence hold for the method and conditions named. In cells and extracts the contact can be indirect. These calls come from enrichment with a bait or labelling near it, and not all partners need be listed.
